A weaker result is weaker than the reference pair of the same experiment. Construct, isoform or probe ends are uncertain for at least one entry.

By UniProt entry, the sequences of proteins in these tests, tags left out.
UniProt Q9H981, whole entry: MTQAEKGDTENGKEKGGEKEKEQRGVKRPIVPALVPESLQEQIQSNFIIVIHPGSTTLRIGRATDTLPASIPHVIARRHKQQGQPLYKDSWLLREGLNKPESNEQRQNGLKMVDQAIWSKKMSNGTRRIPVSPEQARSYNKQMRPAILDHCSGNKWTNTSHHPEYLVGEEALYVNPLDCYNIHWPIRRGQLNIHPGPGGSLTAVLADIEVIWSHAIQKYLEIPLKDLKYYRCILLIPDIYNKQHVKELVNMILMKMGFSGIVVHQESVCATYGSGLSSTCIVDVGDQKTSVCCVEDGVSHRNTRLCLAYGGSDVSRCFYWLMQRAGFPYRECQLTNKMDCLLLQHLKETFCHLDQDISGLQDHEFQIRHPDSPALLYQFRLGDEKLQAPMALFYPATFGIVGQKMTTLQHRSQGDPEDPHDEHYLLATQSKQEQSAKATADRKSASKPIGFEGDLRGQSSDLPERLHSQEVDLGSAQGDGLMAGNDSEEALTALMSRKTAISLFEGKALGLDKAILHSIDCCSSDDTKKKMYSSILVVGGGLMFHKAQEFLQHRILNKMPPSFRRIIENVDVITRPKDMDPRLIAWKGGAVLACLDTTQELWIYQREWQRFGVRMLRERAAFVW

Experimental findings from PMC4191963, “DNA Binding Properties of the Actin-Related Protein Arp8 and Its Role in DNA Repair” (PLoS ONE, 2014) are described below.

This data set deals with Arp8 (Homo sapiens) (UniProt Q9H981). Description: competition EMSA (PAGE). As to conditions: 3 µM each of ssDNA, dsDNA, 3'-overhang, 250 mM NaCl, 20 mM HEPES-NaOH pH 7.5, 160 mM NaCl (250 mM in oligonucleotide competition), 1 mM MgCl2, 1 mM DTT, 0.1 mg/ml BSA, 8% glycerol (not listed for competition), recombinant protein, residues 1-624, protein details: His6 (N-terminal) removed by PreScission. Background: Mobility shift assays separate free from complexed probe on a gel.

Turning to “CCTCGATCCTACCAACCAGATGACGCGCTGCTACGTGCTACCGGAAGTCG / GCCTAGAGTGCAGTTCGTGGCGAGC [a3/c 3'-overhang DNA]”, under “intermediate affinity”, the binding result was “binds”. For “CCTCGATCCTACCAACCAGATGACGCGCTGCTACGTGCTACCGGAAGTCG / CGACTTCCGGTAGCACGTAGCAGCGCGTCAACTGGTTGGTAGGATCGAGG [a3/a3-cp dsDNA]”, under “lowest affinity”, the binding result is “binds more weakly”.
